Values from PubChem BioAssay AID652243 (Drosophila RNAi Screening Center, 2013)

Test: 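Fly regulators of androgen-dependent reporter output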 (primary screen)
Cells: Drosophila S2R+ cells
Knock-down reagent: long dsRNA against Drosophila genes
Duration: 72 h (48 h, then 24 h hormone)
Challenge: synthetic androgen R1881 at 10 nM for 24 h
Measurement: 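Firefly light from an androgen-responsive reporter and Renilla control light per well, raw and unnormalised, for each of two replicates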
Scale: firefly reporter light: higher = more light from androgen-responsive reporter; Renilla control light: higher = more constitutive control signal (cell number, transfection)
Call rule: 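Across duplicate plates, a knock-down whose log firefly/Renilla ratio shifted a set fold down or up from the GFP/LacZ control mean was a hit; the downward cut appears as both 1.5 and 3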
Meaning of the calls: active = hit: reporter lowered or raised; inactive = no hit
The deposit covers about 24,000 reagents; this is a random part of those that have a named target and a result. Of all reagents, 246 (1%) were called active. 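Plates not normalised; calls are printed but the firefly/Renilla ratio behind them is not deposited; fold cut for lowering reported inconsistently.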 Raw values vary from plate to plate and are shown uncorrected. Names joined by + are all predicted targets of the reagent. No sequences are given here. Not given: the amount of reagent.

target | dsRNA | firefly reporter light, replicate 1 | firefly reporter light, replicate 2 | Renilla control light, replicate 1 | Renilla control light, replicate 2 | Outcome
NSD | DRSC15691 | 1.87e5 | 2.28e5 | 2.53e6 | 2.92e6 | inactive
CG32462 + asRNA:CR43426 | DRSC11851 | 62170 | 53206 | 4.95e5 | 3.91e5 | inactive
CG14095 | DRSC10098 | 1.87e5 | 1.53e5 | 2.10e6 | 1.65e6 | inactive
Upf3 | DRSC04092 | 1.14e6 | 5.71e5 | 1.62e6 | 8.63e5 | inactive
Upf3 | DRSC27316 | 2.12e5 | 2.91e5 | 5.35e5 | 5.41e5 | inactive
Nplp2 | DRSC09824 | 1.64e5 | 2.33e5 | 1.64e6 | 1.39e6 | inactive
CG9016 | DRSC03127 | 1.30e5 | 1.79e5 | 1.69e6 | 1.54e6 | inactive
CG9016 | DRSC24205 | 8.17e5 | 7.69e5 | 8.85e5 | 1.20e6 | inactive
SA2 | DRSC08385 | 41238 | 80120 | 7.75e5 | 1.28e6 | inactive
twy | DRSC10562 | 2.89e5 | 2.47e5 | 3.41e6 | 2.94e6 | inactive
spg | DRSC14373 | 2.35e5 | 2.41e5 | 2.38e6 | 3.06e6 | inactive
spg | DRSC14881 | 2.15e5 | 2.64e5 | 2.95e6 | 3.07e6 | inactive
vvl | DRSC11409 | 1.73e5 | 80132 | 2.12e6 | 1.50e6 | inactive
vvl | DRSC26681 | 2.74e5 | 2.02e5 | 7.05e5 | 4.44e5 | inactive
lgs | DRSC17152 | 1.05e5 | 1.48e5 | 4.92e5 | 5.38e5 | inactive
Dcr-2 | DRSC06992 | 1.94e5 | 2.02e5 | 4.06e6 | 4.06e6 | inactive
Dcr-2 | DRSC29436 | 6.10e5 | 5.91e5 | 8.51e5 | 8.51e5 | inactive
CG14329 | DRSC14808 | 1.00e5 | 94985 | 7.88e5 | 6.15e5 | inactive
CG14410 | DRSC19596 | 5.43e5 | 6.22e5 | 3.12e6 | 2.81e6 | inactive
CG30114 | DRSC05707 | 59968 | 76006 | 2.83e5 | 96599 | inactive
CG30114 | DRSC25433 | 8.64e5 | 1.13e6 | 7.82e5 | 9.47e5 | inactive
Ranbp16 + Lcch3 | DRSC20257 | 75513 | 1.15e5 | 5.50e5 | 5.74e5 | inactive
ss | DRSC17069 | 1.83e5 | 1.54e5 | 2.44e6 | 2.34e6 | inactive
CG17717 | DRSC18130 | 2.40e5 | 3.11e5 | 2.81e6 | 3.45e6 | inactive
Atxn7 | DRSC23138 | 8.30e5 | 9.02e5 | 1.41e6 | 1.60e6 | inactive
Tudor-SN | DRSC08581 | 8.82e5 | 1.06e6 | 8.52e5 | 1.12e6 | inactive
CG33468 | DRSC22940 | 4.08e5 | 8.02e5 | 7.12e5 | 1.20e6 | inactive
CG13312 | DRSC09983 | 1.69e5 | 2.50e5 | 2.38e6 | 2.54e6 | inactive
CG13312 | DRSC26729 | 3.86e5 | 2.67e5 | 5.02e5 | 4.91e5 | inactive
CG1265 | DRSC08288 | 1.35e5 | 2.14e5 | 2.43e6 | 3.33e6 | inactive
CG4239 | DRSC19885 | 1.91e5 | 1.10e5 | 6.98e5 | 6.56e5 | inactive
eIF3g1 | DRSC18427 | 67966 | 48999 | 3.25e5 | 2.77e5 | inactive
eIF3g1 | DRSC29282 | 1.01e6 | 1.06e6 | 9.16e5 | 8.85e5 | inactive
CG9737 | DRSC16550 | 2.71e5 | 2.86e5 | 3.02e6 | 3.40e6 | inactive
Ype | DRSC20301 | 81481 | 1.23e5 | 7.54e5 | 8.60e5 | inactive
AGO1 | DRSC05912 | 7.90e5 | 6.37e5 | 1.30e6 | 1.31e6 | inactive
AGO1 | DRSC39159 | 3.16e5 | 3.04e5 | 1.29e6 | 1.27e6 | inactive
Muc68Ca | DRSC10312 | 6.80e5 | 4.44e5 | 3.06e6 | 3.16e6 | inactive
Muc68Ca | DRSC10313 | 2.96e5 | 2.29e5 | 2.42e6 | 1.70e6 | inactive
Drsl3 | DRSC22630 | 8.13e5 | 7.60e5 | 8.18e5 | 6.69e5 | inactive
Drsl3 | DRSC29261 | 6.42e5 | 3.97e5 | 1.36e6 | 1.28e6 | inactive
CG15111 | DRSC21467 | 8.28e5 | 8.89e5 | 1.98e6 | 2.21e6 | inactive
CG13989 | DRSC02321 | 1.44e5 | 1.63e5 | 1.29e6 | 1.42e6 | inactive
Ddx56 | DRSC20567 | 1.22e5 | 1.54e5 | 5.85e5 | 4.66e5 | inactive
Ddx56 | DRSC26165 | 2.76e5 | 2.19e5 | 6.73e5 | 5.66e5 | inactive
CG34429 | DRSC10120 | 2.17e5 | 1.58e5 | 2.18e6 | 2.27e6 | inactive
fd96Cb | DRSC16947 | 1.69e5 | 2.33e5 | 2.28e6 | 2.10e6 | inactive
fd96Cb | DRSC25322 | 3.57e5 | 3.48e5 | 4.46e5 | 4.31e5 | inactive
VhaPPA1-1 | DRSC16170 | 64442 | 69719 | 4.95e5 | 5.06e5 | inactive
VhaPPA1-1 | DRSC24144 | 2.48e5 | 3.19e5 | 8.66e5 | 5.14e5 | inactive
CG10466 | DRSC02060 | 1.97e5 | 1.83e5 | 2.05e6 | 2.32e6 | inactive
Capr | DRSC10346 | 1.56e5 | 1.80e5 | 2.16e6 | 2.75e6 | inactive
Capr | DRSC26777 | 4.52e5 | 4.37e5 | 4.19e5 | 5.25e5 | inactive
CG7707 | DRSC10903 | 2.92e5 | 2.60e5 | 3.50e6 | 2.87e6 | inactive
CG31391 | DRSC16047 | 1.07e5 | 1.01e5 | 1.43e6 | 1.11e6 | inactive
Sema1a | DRSC03433 | 2.77e5 | 1.71e5 | 1.41e6 | 1.37e6 | inactive
Ocrl | DRSC18576 | 87023 | 1.82e5 | 1.01e6 | 1.10e6 | active
Ocrl | DRSC36745 | – | – | – | – | inactive
Ocrl | DRSC36746 | – | – | – | – | inactive

7 entries already listed, sorted by “firefly reporter light, replicate 2”, highest first.
target | dsRNA | firefly reporter light, replicate 1 | firefly reporter light, replicate 2 | Renilla control light, replicate 1 | Renilla control light, replicate 2 | Outcome
eIF3g1 | DRSC29282 | 1.01e6 | 1.06e6 | 9.16e5 | 8.85e5 | inactive
CG33468 | DRSC22940 | 4.08e5 | 8.02e5 | 7.12e5 | 1.20e6 | inactive
CG13312 | DRSC26729 | 3.86e5 | 2.67e5 | 5.02e5 | 4.91e5 | inactive
CG13312 | DRSC09983 | 1.69e5 | 2.50e5 | 2.38e6 | 2.54e6 | inactive
CG1265 | DRSC08288 | 1.35e5 | 2.14e5 | 2.43e6 | 3.33e6 | inactive
CG4239 | DRSC19885 | 1.91e5 | 1.10e5 | 6.98e5 | 6.56e5 | inactive
eIF3g1 | DRSC18427 | 67966 | 48999 | 3.25e5 | 2.77e5 | inactive
